# Assay results as given in PMC5914118 (Contrast Media & Molecular Imaging, 2018).
# Assay: general procedure: Fmoc solid-phase peptide synthesis; Rink amide MBHA; HATU/HOAt
# Details: whole synthesis, scale 62.5 µmol
substance,measurement,value
"[3-MP^0-D-Glu^1,desGlu^2-6]-Ala-Tyr-Gly-Trp-Met-Asp-Phe-NH2",isolated mass,37.6 mg
same,isolated yield,54%
